Reference: patent US12723053B2, “KRas inhibitors” (ELI LILLY AND COMPANY, priority 2023, dated 2026)
Some entries share one result that the patent states for a list of compounds.

Key:
WT KRAS Amplification = biological target: T1, WT KRAS Amplification (Homo sapiens, UniProt P01116); experiment: Cellular Phospho-ERK AlphaLISA assay, MKN45 cells; assay type: cell-based; conditions: 2 h incubation; cell line for KRAS WT not given; read-out: relative IC50, reduction of phosphorylated ERK-1/2, cells expressing KRAS WT
T1 construct: endogenous in cells; host or cells: MKN45 human gastric cancer cells

NRAS = NRAS (Homo sapiens, UniProt P01111); experiment: Cellular Phospho-ERK AlphaLISA assay, MEF-NRAS cells; assay type: cell-based, mouse; conditions: RAS-less MEFs expressing NRAS only; read-out: relative IC50, phospho-ERK, MEF-NRAS
KRAS G12D = biological target: T2, KRAS G12D (Homo sapiens, UniProt P01116, G12D); experiment: Cellular Phospho-ERK AlphaLISA assay, HPAC cells; assay type: cell-based; conditions: 2 h incubation; read-out: relative IC50, reduction of phosphorylated ERK-1/2, cells expressing KRAS G12D
T2 construct: endogenous in cells; host or cells: HPAC human pancreatic cancer cells

HRAS = HRAS (Homo sapiens, UniProt P01112); experiment: Cellular Phospho-ERK AlphaLISA assay, MEF-HRAS cells; assay type: cell-based, mouse; conditions: RAS-less MEFs expressing HRAS only; read-out: relative IC50, phospho-ERK, MEF-HRAS
KRAS G12C = biological target: T3, KRAS G12C (Homo sapiens, UniProt P01116, G12C); experiment: Cellular Phospho-ERK AlphaLISA assay, NCI-1373 cells; assay type: cell-based; conditions: 2 h incubation; read-out: relative IC50, reduction of phosphorylated ERK-1/2, cells expressing KRAS G12C
T3 construct: endogenous in cells; host or cells: NCI-1373 human lung cancer cells (so in the source); probably NCI-H1373

KRAS G12V = biological target: T4, KRAS G12V (Homo sapiens, UniProt P01116, G12V); experiment: Cellular Phospho-ERK AlphaLISA assay, SW620 cells; assay type: cell-based; conditions: for IC50: 2 h incubation, read-out: relative IC50, reduction of phosphorylated ERK-1/2, cells expressing KRAS G12V; for selective inhibition preference for KRas G12V mutant over HRAS and NRAS: SW620 vs MEF-NRAS or MEF-HRAS Phospho-ERK AlphaLISA
T4 construct: endogenous in cells; host or cells: SW620 human colorectal cancer cells

KRas G12D mutant = biological target: T5, KRas G12D mutant (Homo sapiens, UniProt P01116, G12D); experiment: PANC-1 Cellular Active RAS GTPase ELISA (KRas G12D Mutation); assay type: cell-based; conditions: PANC-1 vs MKN-45 Cellular Active RAS GTPase ELISA
T5 construct: host or cells: PANC-1 human pancreatic ductal adenocarcinoma cells

Row | Compound | IC50 (WT KRAS Amplification) | IC50 (NRAS) | IC50 (KRAS G12D) | IC50 (HRAS) | IC50 (KRAS G12C) | IC50 (KRAS G12V) | selective inhibition preference for KRas G12V mutant over HRAS and NRAS (KRAS G12V) | selective inhibition preference for KRas G12D mutant over KRas wild-type (KRas G12D mutant)
1 | N#Cc1c(N)sc2c(F)cnc(-c3c4c(c5cnc(OCC6(CN7CCOCC7)CC6(F)F)nc5c3F)COC4)c12 (single isomer, unassigned; isomer 1) [Example 34, 2-Amino-4-(3-((2,2-difluoro-1-(morpholinomethyl)cyclopropyl)methoxy)-5-fluoro-7,9-dihydrofuro[3,4-f]quinazolin-6-yl)-7-fluorothieno[3,2-c]pyridine-3-carbonitrile, Isomer 1] | < 500 nM | > 2000 nM | < 500 nM | > 2000 nM | < 500 nM | < 500 nM | greater than 10 fold | 
2 | C[C@@H](O)CN1CC2CCC(C1)N2c1nc(OCC2(CN3CCC(C#N)CC3)CC2)nc2c(F)c(-c3ncc(F)c4sc(N)c(C#N)c34)c3c(c12)COC3 [Example 1A, 2-Amino-4-(3-((1-((4-cyanopiperidin-1-yl)methyl)cyclopropyl)meth-oxy)-5-fluoro-1-(3-((R)-2-hydroxypropyl)-3,8-diazabicyclo[3.2.1]octan-8-yl)-7,9-dihydrofuro[3,4-f]quinazolin-6-yl)-7-fluorothieno[3,2-c]pyridine-3-carbonitrile] |  |  |  |  |  |  |  | greater than 10 fold
3 | N#Cc1c(N)sc2c(F)cnc(-c3c4c(c5cnc(OCC6(CN7CC[C@@H](F)C7)CC6)nc5c3F)COC4)c12 [Example 21, 2-Amino-7-fluoro-4-(5-fluoro-3-((1-(((R)-3-fluoropyrrolidin-1-yl)methyl)cyclopropyl)methoxy)-7,9-dihydrofuro[3,4-f]quinazolin-6-yl)thieno[3,2-c]pyridine-3-carbonitrile] | < 500 nM | > 2000 nM | < 500 nM | > 2000 nM | < 500 nM | < 500 nM | greater than 10 fold | 
4 | CN1CCN(CC2(COc3ncc4c5c(c(-c6ncc(F)c7sc(N)c(C#N)c67)c(F)c4n3)COC5)CC2)CC1 [Example 22, 2-Amino-7-fluoro-4-(5-fluoro-3-((1-((4-methylpiperazin-1-yl)methyl)cyclopropyl)methoxy)-7,9-dihydrofuro[3,4-f]quinazolin-6-yl)thieno[3,2-c]pyridine-3-carbonitrile] | < 500 nM | > 2000 nM | < 500 nM | > 2000 nM | < 500 nM | < 500 nM | greater than 10 fold | 
5 | N#Cc1c(N)sc2c(F)cnc(-c3c4c(c5cnc(OCC6(CN7CCC7)CC6)nc5c3F)COC4)c12 [Example 24, 2-Amino-4-(3-((1-(azetidin-1-ylmethyl)cyclopropyl)methoxy)-5-fluoro-7,9-dihydrofuro[3,4-f]quinazolin-6-yl)-7-fluorothieno[3,2-c]pyridine-3-carbonitrile] | < 500 nM | > 2000 nM | < 500 nM | > 2000 nM | < 500 nM | < 500 nM | greater than 10 fold | 
6 | N#Cc1c(N)sc2c(F)cnc(-c3c4c(c5cnc(OCC6(CN7CC8(CCOC8)C7)CC6)nc5c3F)COC4)c12 [Example 25, 4-(3-((1-((6-Oxa-2-azaspiro[3.4]octan-2-yl)methyl)cyclopropyl)methoxy)-5-fluoro-7,9-dihydrofuro[3,4-f]quinazolin-6-yl)-2-amino-7-fluorothieno[3,2-c]pyridine-3-carbonitrile] | < 500 nM | > 2000 nM | < 500 nM | > 2000 nM | < 500 nM | < 500 nM | greater than 10 fold | 
7 | N#Cc1c(N)sc2c(F)cnc(-c3c4c(c5cnc(OCC6(CN7CC8C(C7)C8(F)F)CC6)nc5c3F)COC4)c12 (centres unmarked) [Example 26, 2-Amino-4-(3-((1-((6,6-difluoro-3-azabicyclo[3.1.0]hexan-3-yl)methyl)cyclopropyl)methoxy)-5-fluoro-7,9-dihydrofuro[3,4-f]quinazolin-6-yl)-7-fluorothieno[3,2-c]pyridine-3-carbonitrile] | < 500 nM | > 2000 nM | < 500 nM | > 2000 nM | < 500 nM | < 500 nM | greater than 10 fold | 
8 | N#Cc1c(N)sc2c(F)cnc(-c3c4c(c5cnc(OCC6(CN7CC(F)C7)CC6)nc5c3F)COC4)c12 [Example 27, 2-Amino-7-fluoro-4-(5-fluoro-3-((1-((3-fluoroazetidin-1-yl)methyl)cyclopropyl)methoxy)-7,9-dihydrofuro[3,4-f]quinazolin-6-yl)thieno[3,2-c]pyridine-3-carbonitrile] | < 500 nM |  | < 500 nM |  | < 500 nM | < 500 nM | greater than 10 fold | 
9 | N#Cc1c(N)sc2c(F)cnc(-c3c4c(c5cnc(OCC6(CN7CCC(F)(F)CC7)CC6)nc5c3F)COC4)c12 [Example 28, 2-Amino-4-(3-((1-((4,4-difluoropiperidin-1-yl)methyl)cyclopropyl)methoxy)-5-fluoro-7,9-dihydrofuro[3,4-f]quinazolin-6-yl)-7-fluorothieno[3,2-c]pyridine-3-carbonitrile] | < 500 nM |  | < 500 nM |  | < 500 nM | < 500 nM | greater than 10 fold | 
10 | N#Cc1c(N)sc2c(F)cnc(-c3c4c(c5cnc(OCC6(CN7C[C@@H]8C[C@H]7CO8)CC6)nc5c3F)COC4)c12 [Example 29, 4-(3-((1-(((1S,4S)-2-Oxa-5-azabicyclo[2.2.1]heptan-5-yl)methyl)cyclopropyl)methoxy)-5-fluoro-7,9-dihydrofuro[3,4-f]quinazolin-6-yl)-2-amino-7-fluorothieno[3,2-c]pyridine-3-carbonitrile] | < 500 nM | > 2000 nM | < 500 nM | > 2000 nM | < 500 nM | < 500 nM | greater than 10 fold | 
11 | CC(C)(COc1ncc2c3c(c(-c4ncc(F)c5sc(N)c(C#N)c45)c(F)c2n1)COC3)CN1CCOCC1 [Example 30, 2-Amino-4-(3-(2,2-dimethyl-3-morpholinopropoxy)-5-fluoro-7,9-dihydrofuro[3,4-f]quinazolin-6-yl)-7-fluorothieno[3,2-c]pyridine-3-carbonitrile] | < 500 nM | > 2000 nM | < 500 nM | > 2000 nM | < 500 nM | < 500 nM | greater than 10 fold | 
12 | CCN1CCN(CC2(COc3ncc4c5c(c(-c6ncc(F)c7sc(N)c(C#N)c67)c(F)c4n3)COC5)CC2)CC1=O [Example 32, 2-Amino-4-(3-((1-((4-ethyl-3-oxopiperazin-1-yl)methyl)cyclopropyl)methoxy)-5-fluoro-7,9-dihydrofuro[3,4-f]quinazolin-6-yl)-7-fluorothieno[3,2-c]pyridine-3-carbonitrile] | < 500 nM | > 2000 nM | < 500 nM | > 2000 nM | < 500 nM | < 500 nM | greater than 10 fold | 
13 | N#Cc1c(N)sc2c(F)cnc(-c3c4c(c5cnc(OCC6(CN7CC8(CCOCC8)C7)CC6)nc5c3F)COC4)c12 [Example 33, 4-(3-((1-((7-Oxa-2-azaspiro[3.5]nonan-2-yl)methyl)cyclopropyl)methoxy)-5-fluoro-7,9-dihydrofuro[3,4-f]quinazolin-6-yl)-2-amino-7-fluorothieno[3,2-c]pyridine-3-carbonitrile] | < 500 nM | > 2000 nM | < 500 nM | > 2000 nM | < 500 nM | < 500 nM | greater than 10 fold | 
14 | N#Cc1c(N)sc2c(F)cnc(-c3c4c(c5ccc(OCC6(CN7CCOCC7)CC6)nc5c3F)COC4)c12 [Example 36, 2-Amino-7-fluoro-4-(5-fluoro-7-((1-(morpholinomethyl)cyclopropyl)methoxy)-1,3-dihydrofuro[3,4-f]quinolin-4-yl)thieno[3,2-c]pyridine-3-carbonitrile] | < 500 nM |  | < 500 nM |  | < 500 nM | < 500 nM | greater than 10 fold | 
